Measurements: the supplement of paper PMC12823440, “Inhibitors supercharge kinase turnover through native proteolytic circuits” (Nature, 2025)
This is one part of the list. Hit calls seldom repeat between salt and free forms of one compound.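 Kinases, fused to nanoluciferase, were expressed in K562 cells; luminescence was measured every 4 h from 2 to 18 h as percent of control (DMSO = 100%, positive control = 0%). A time point is decreased if signal falls significantly (2 sigma). Hits were called by the authors by a rule that is not shown; the count of time points alone does not decide it.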

Sequences of proteins named here, by UniProt entry; tags and fusion partners are left off. A change or cut given only in a name is not applied to a line headed by its entry.
UniProt P48729: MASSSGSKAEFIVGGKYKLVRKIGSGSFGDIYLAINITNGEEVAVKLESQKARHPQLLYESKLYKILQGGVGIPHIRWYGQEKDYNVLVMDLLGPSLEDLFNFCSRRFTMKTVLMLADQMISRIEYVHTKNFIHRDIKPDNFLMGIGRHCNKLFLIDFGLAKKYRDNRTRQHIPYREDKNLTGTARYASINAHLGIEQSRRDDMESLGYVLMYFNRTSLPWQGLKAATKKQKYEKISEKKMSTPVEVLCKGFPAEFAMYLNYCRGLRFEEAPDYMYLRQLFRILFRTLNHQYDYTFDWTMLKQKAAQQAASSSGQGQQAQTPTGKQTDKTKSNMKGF
UniProt P48730: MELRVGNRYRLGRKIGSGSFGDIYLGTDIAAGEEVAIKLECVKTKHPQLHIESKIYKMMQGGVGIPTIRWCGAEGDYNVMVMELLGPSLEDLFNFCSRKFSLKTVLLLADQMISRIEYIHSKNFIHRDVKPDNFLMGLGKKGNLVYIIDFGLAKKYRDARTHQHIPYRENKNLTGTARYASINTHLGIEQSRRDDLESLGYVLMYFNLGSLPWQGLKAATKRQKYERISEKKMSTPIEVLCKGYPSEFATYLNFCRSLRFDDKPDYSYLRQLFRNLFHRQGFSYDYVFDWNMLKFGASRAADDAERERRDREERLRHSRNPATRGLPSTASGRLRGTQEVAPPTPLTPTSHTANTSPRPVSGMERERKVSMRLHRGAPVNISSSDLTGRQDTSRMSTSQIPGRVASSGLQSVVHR
UniProt Q08345: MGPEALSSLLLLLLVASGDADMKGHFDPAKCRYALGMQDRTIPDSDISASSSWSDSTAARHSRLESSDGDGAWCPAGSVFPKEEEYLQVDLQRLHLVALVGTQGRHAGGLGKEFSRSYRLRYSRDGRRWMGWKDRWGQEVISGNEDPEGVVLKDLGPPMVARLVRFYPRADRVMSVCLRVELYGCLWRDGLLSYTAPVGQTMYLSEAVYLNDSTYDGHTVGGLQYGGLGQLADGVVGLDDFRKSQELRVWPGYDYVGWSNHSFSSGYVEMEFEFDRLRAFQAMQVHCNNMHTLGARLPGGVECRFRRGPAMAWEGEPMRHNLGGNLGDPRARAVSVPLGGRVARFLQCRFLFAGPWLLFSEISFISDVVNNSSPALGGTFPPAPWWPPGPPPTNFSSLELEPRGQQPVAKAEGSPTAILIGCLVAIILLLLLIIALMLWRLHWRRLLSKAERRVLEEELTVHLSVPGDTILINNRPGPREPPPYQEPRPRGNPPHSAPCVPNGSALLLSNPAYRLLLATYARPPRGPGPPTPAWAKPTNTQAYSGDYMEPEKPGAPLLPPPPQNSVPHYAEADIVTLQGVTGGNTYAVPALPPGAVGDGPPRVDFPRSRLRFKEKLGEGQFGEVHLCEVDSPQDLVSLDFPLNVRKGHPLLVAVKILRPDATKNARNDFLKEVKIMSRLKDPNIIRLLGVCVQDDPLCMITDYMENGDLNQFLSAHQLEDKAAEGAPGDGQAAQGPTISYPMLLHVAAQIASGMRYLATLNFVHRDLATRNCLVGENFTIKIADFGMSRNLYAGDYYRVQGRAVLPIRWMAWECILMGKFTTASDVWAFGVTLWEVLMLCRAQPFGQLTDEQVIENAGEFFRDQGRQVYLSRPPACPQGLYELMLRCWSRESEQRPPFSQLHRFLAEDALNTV
UniProt Q9Y463, whole entry, looked up: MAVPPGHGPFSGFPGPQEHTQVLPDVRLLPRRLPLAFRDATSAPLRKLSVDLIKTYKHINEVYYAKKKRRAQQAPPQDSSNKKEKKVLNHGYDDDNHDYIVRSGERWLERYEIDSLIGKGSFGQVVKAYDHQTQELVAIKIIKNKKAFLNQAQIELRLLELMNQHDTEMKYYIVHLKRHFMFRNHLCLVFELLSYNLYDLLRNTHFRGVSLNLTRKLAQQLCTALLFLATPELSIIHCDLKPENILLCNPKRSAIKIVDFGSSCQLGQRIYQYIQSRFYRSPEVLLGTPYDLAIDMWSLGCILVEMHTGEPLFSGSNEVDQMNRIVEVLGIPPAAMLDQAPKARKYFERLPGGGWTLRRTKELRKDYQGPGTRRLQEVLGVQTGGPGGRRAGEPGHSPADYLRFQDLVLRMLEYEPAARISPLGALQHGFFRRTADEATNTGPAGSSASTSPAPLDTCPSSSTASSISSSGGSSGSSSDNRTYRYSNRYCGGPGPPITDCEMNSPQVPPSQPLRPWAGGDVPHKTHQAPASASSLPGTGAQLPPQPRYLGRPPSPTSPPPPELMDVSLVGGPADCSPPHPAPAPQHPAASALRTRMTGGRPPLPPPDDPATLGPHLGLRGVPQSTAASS
UniProt Q92630: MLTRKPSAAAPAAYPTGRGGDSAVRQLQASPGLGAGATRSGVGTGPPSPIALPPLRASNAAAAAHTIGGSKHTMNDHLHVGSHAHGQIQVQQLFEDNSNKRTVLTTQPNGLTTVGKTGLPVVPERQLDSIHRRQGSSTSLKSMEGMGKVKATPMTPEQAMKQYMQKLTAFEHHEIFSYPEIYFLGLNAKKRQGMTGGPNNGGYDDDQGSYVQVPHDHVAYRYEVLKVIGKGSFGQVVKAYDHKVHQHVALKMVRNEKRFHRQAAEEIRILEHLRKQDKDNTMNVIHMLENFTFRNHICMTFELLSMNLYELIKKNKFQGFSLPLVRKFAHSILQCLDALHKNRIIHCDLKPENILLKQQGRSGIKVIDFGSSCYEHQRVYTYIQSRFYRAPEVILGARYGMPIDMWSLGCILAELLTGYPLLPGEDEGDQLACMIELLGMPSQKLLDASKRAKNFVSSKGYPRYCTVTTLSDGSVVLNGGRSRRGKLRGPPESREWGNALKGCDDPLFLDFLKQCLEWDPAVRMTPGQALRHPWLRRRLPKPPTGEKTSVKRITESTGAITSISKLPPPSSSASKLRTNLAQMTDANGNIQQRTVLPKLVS

Tests used:
Experiment in all cases: number of time points (of 5) at which kinase-Nluc abundance scored as decreased, DMSO-normalised (count); higher = more persistent destabilization
Conditions in all cases: K562; 2-18 h
CSNK1A1 = CSNK1A1 (UniProt P48729)
CSNK1D = CSNK1D (UniProt P48730)
DDR1 = DDR1 (UniProt Q08345)
DYRK1B = DYRK1B (UniProt Q9Y463)
DYRK2 = DYRK2 (UniProt Q92630)
EGFR = EGFR (UniProt P00533)
EGFR_G719S = EGFR_G719S (UniProt P00533)
EGFR_G719S_T790M = EGFR_G719S_T790M (UniProt P00533)
EGFR_L718V = EGFR_L718V (UniProt P00533)
EGFR_L858R = EGFR_L858R (UniProt P00533)

| Structure (SMILES) | number of time points (CSNK1A1) | number of time points (CSNK1D) | number of time points (DDR1) | number of time points (DYRK1B) | number of time points (DYRK2) | number of time points (EGFR) | number of time points (EGFR_G719S) | number of time points (EGFR_G719S_T790M) | number of time points (EGFR_L718V) | number of time points (EGFR_L858R) |
| --- | --- | --- | --- | --- | --- | --- | --- | --- | --- | --- |
| O=C1NC(=O)/C(=C\c2cccc(C(F)(F)F)c2)S1 (2.5 µM) | 0 | 0 | 0 | 0 | 0 | 0 | 0 | 0 | 0 | 0 |
| C=CC(=O)Nc1cc(C)ccc1Nc1nc(Nc2cc(OC)ncc2C)ncc1C(F)(F)F (10 µM) | 0 | 0 | 0 | 0 | 0 | 0 | 0 | 0 | 0 | 0 |
| Cc1cc2ncc(-c3ccc(O)c(O)c3)nc2cc1C [Tyrphostin AG1433] (10 µM) | 0 | 0 | 0 | 0 | 0 | 0 | 0 | 0 | 0 | 0 |
| O=C1N[C@@H](Cc2c[nH]c3ccccc23)C(=O)N2CCC[C@@H]12 [Brevianamide F] (10 µM) | 0 | 0 | 0 | 0 | 0 | 0 | 0 | 0 | 0 | 0 |
| Cc1ccccc1-c1c2nccc(-c3ccc(F)cc3F)c2cc[n+]1[O-] (10 µM) | 0 | 0 | 0 | 0 | 0 | 0 | 0 | 0 | 0 | 0 |
| NC(=O)c1ccc2[nH]ccc2c1 (10 µM) | 0 | 0 | 0 | 0 | 0 | 0 | 0 | 0 | 0 | 0 |
| O=C(Nc1cn[nH]c1-c1ccccn1)c1nn(C2CCNCC2)cc1Cl (10 µM) | 0 | 0 | 0 | 0 | 3 | 0 | 0 | 1 | 0 | 0 |
| Cc1cc(Nc2ncnc3ccc(NC4=NC(C)(C)CO4)cc23)ccc1Oc1ccn2ncnc2c1 [Tucatinib] (2.5 µM) | 0 | 0 | 0 | 0 | 0 | 0 | 0 | 0 | 0 | 0 |
| Cc1cc(O)c2c(c1)C(=O)c1cc(O)cc(O)c1C2=O [Emodin] (10 µM) | 0 | 0 | 0 | 0 | 0 | 0 | 0 | 0 | 0 | 0 |
| c1cncc(CN2CCC(n3ncc4c(N5CCOCC5)nc(-c5ccc6[nH]ccc6c5)nc43)CC2)c1 (10 µM) | 0 | 3 | 4 | 1 | 4 | 0 | 1 | 2 | 0 | 2 |
| COc1cc2ncnc(Nc3ccc(Cl)cc3F)c2cc1OC (10 µM) | 0 | 0 | 0 | 0 | 0 | 0 | 0 | 0 | 0 | 0 |
| Cn1cnc2c(F)c(Nc3ccc(Br)cc3Cl)c(C(=O)NOCCO)cc21 [Selumetinib (sulfate)] (10 µM) | 0 | 0 | 0 | 0 | 0 | 0 | 0 | 0 | 0 | 0 |
| Cn1cnc(Cn2ccc3ccc(CNCc4[nH]c5ccccc5c4[C@H]4NC(=O)c5ccc(O)cc54)cc32)c1 (10 µM) | 0 | 0 | 0 | 0 | 0 | 0 | 0 | 0 | 0 | 0 |
| CCN1CCN(Cc2ccc(-c3cc4c(N[C@H](C)c5ccccc5)ncnc4[nH]3)cc2)CC1 (2.5 µM) | 3 | 2 | 3 | 0 | 3 | 0 | 1 | 0 | 1 | 0 |
| CN(C)C(=O)Cn1cc(-c2ccc(-c3cncc4ccccc34)cc2)cn1 (10 µM) | 0 | 0 | 0 | 0 | 0 | 0 | 0 | 0 | 0 | 0 |
| CN1CCC(c2cc(-c3ccncc3)c(-c3ccc(F)cc3)[nH]2)CC1 (10 µM) | 0 | 0 | 0 | 0 | 0 | 0 | 0 | 0 | 0 | 0 |
| O=Nc1c(-c2c(O)[nH]c3ccc(F)cc23)[nH]c2ccccc12 [5'-Fluoroindirubinoxime] (10 µM) | 0 | 0 | 0 | 0 | 0 | 0 | 0 | 0 | 0 | 0 |
| C=C(CC[C@@H](C(=O)O)[C@H]1[C@H](O)C[C@@]2(C)C3=C(CC[C@]12C)[C@@]1(C)CC[C@H](OC(C)=O)C(C)(C)[C@@H]1CC3)C(C)C [Pachymic acid] (10 µM) | 0 | 0 | 0 | 0 | 0 | 0 | 0 | 0 | 0 | 0 |

Filtered by structure, those above containing a CF3 group.

| Structure (SMILES) | number of time points (CSNK1A1) | number of time points (CSNK1D) | number of time points (DDR1) | number of time points (DYRK1B) | number of time points (DYRK2) | number of time points (EGFR) | number of time points (EGFR_G719S) | number of time points (EGFR_G719S_T790M) | number of time points (EGFR_L718V) | number of time points (EGFR_L858R) |
| --- | --- | --- | --- | --- | --- | --- | --- | --- | --- | --- |
| O=C1NC(=O)/C(=C\c2cccc(C(F)(F)F)c2)S1 (2.5 µM) | 0 | 0 | 0 | 0 | 0 | 0 | 0 | 0 | 0 | 0 |
| C=CC(=O)Nc1cc(C)ccc1Nc1nc(Nc2cc(OC)ncc2C)ncc1C(F)(F)F (10 µM) | 0 | 0 | 0 | 0 | 0 | 0 | 0 | 0 | 0 | 0 |
